Test results published in the supplement of paper PMC8256030.
Values joined by “and” are separate entries in the source; they are usually repeats but may differ in a detail not shown here. Identical values can stand only once. Counter-ions that a name gives are not always drawn. ± gives the standard deviation of the averaged measurements. The list shows a part of the results. Single values are uncertain here, since repeats match poorly.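 HEK293T cells were given each compound shortly before transfection with a reporter in which red mCherry is followed by the SARS-CoV-2 frameshift element and then GFP in the −1 frame, so GFP appears only after frameshifting.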

Tests used:
HEK293T = test: percent viability (nuclei count) relative to control; higher = more viable cells; settings: 10 µM; 24 h
[1] = test system: SARS-CoV-2 -1 PRF reporter mCherry-FSE-GFP(-1); test: mCherry (red) intensity as percent of control; higher = higher upstream reporter expression; settings: 10 µM; 24 h; HEK293T
[2] = test system: SARS-CoV-2 -1 PRF reporter mCherry-FSE-GFP(-1); test: percent effect, decrease of GFP/mCherry ratio (-1 PRF reporter) relative to controls; higher = stronger frameshift inhibition; settings: 10 µM; 24 h; HEK293T

SMILES | percent viability (HEK293T) | mCherry [1] | percent effect [2]
O=C1CN=C(c2ccccc2)c2cc(Cl)ccc2N1CC1CC1 [prazepam] | 40.5% | 71.4% | -4.66%
CN1C[C@H](C(=O)N[C@]2(C)O[C@@]3(O)[C@@H]4CCCN4C(=O)[C@H](Cc4ccccc4)N3C2=O)C[C@@H]2c3cccc4[nH]cc(c34)C[C@H]21 | 172% | 96% | -1.25%
N[C@@H]1C[C@H]1c1ccccc1.N[C@H]1C[C@@H]1c1ccccc1 | 118% | 118% | -12.1%
COC(=O)c1cncn1C(C)c1ccccc1 (centres undefined) [metomidate] | 200% | 79.8% | -7.86%
O=C1CN=C(c2ccccc2)c2cc(Cl)ccc2N1 [nordazepam] | 288% | 91.5% | -1.52%
NC1=NC(=O)N2CC12 (centres undefined) | 302% | 123% | -3.98%
CC[C@@H](CO)NC(=O)[C@@H]1C=C2c3cccc4c3c(cn4C)C[C@H]2N(C)C1 [Methysergide maleate] | 99.3% | 87.4% | -1.14%
CN(C)C(=O)Oc1ccc[n+](C)c1 [pyridostigmine bromide] | 177% | 124% | 3.54%
C[C@]12COC(=O)C[C@@H]1CC[C@@H]1[C@@H]2CC[C@@]2(C)[C@H]1CC[C@]2(C)O [oxandrolone] | 325% | 86.5% | -2.51%
C#C[C@]1(O)C=C[C@H]2[C@@H]3CCC4=CC(=O)CC[C@@H]4[C@H]3CC[C@@]21CC [gestodene] | 138 ± 10% | 117 ± 19% | 0.59 ± 2.2%
C=C[C@H]1CN2CC[C@H]1C[C@H]2[C@H](O)c1ccnc2ccccc12 | 156% | 127% | 1.78%
NC1=NCC(c2ccccc2)O1 (centres undefined) [aminorex] | 143% | 98.3% | -6.06%
C=CCC1(CC=C)C(=O)NC(=O)NC1=O [allobarbital] | 317% | 97.4% | -5.48%
CC(Cc1ccc(O)cc1)NCC(O)c1cc(O)cc(O)c1 (centres undefined) [fenoterol] | 125% | 108% | -9.17%
OC(c1ccccc1)(c1ccccc1)C1CN2CCC1CC2 (centres undefined) [quifenadine] | 506% | 59% | 1.08%
NC(=O)OCC(O)c1ccccc1 (centres undefined) [styramate] | 207% | 92.3% | -9.94%
O=C(O)C1N=C(c2ccccc2)c2cc(Cl)ccc2NC1=O (centres undefined) | 259% | 81.7% | -5.11%
COc1ccc(CN2CCNCC2)c(OC)c1OC [trimetazidine] | 320% | 107% | -7.96%
O=C(CCCN1CCC(n2c(=O)[nH]c3ccccc32)CC1)c1ccc(F)cc1 [benperidol] | 208% | 84.3% | -1.46%
COc1cccc(C2(O)CCCCC2CN(C)C)c1 (centres undefined) [Tramadol] | 220% | 50.5% | -4.83%
CN1C(=O)CCS(=O)(=O)C1c1ccc(Cl)cc1 (centres undefined) [chlormezanone] | 132% | 98% | -10.7%
CC(=O)OCC1=C(C(=O)O)N2C(=O)[C@@H](NC(=O)CCC[C@@H](N)C(=O)O)[C@H]2SC1 | 447% | 102% | -2.18%
C[C@@H](CO)NC(=O)[C@@H]1C=C2c3cccc4[nH]cc(c34)C[C@H]2N(C)C1 | 283% | 76.9% | -3.85%
CC1Oc2ccccc2CC1N(C)C (centres undefined) [trebenzomine] | 236% | 76% | 1.11%

SMILES | percent viability (HEK293T) | mCherry [1] | percent effect [2]
CN[C@H]1CCc2cc(OC)c(OC)c(OC)c2-c2ccc(OC)c(=O)cc21 [demecolcine] | 25.1% | 42.7% | -17.6%
COc1ccc(OC)c(C(O)C(C)N)c1 (centres undefined) [methoxamine] | 307% | 93.2% | -3.24%
CN1[C@@H]2CC[C@H]1C[C@@H](OC(=O)[C@H](CO)c1ccccc1)C2 | 208% | 106% | -9.9%
CN1c2ccccc2C(NCCCCCCC(=O)O)c2ccc(Cl)cc2S1(=O)=O (centres undefined) [tianeptine] | 105% | 106% | -2.69%
COc1ccc(C(=O)N2CCCC2=O)cc1 [aniracetam] | 256% and 309% | 100% and 88.9% | 1.43% and -7.39%
CCCOC(=O)[C@H]1[C@@H](OC(=O)c2ccccc2)C[C@@H]2CC[C@H]1N2C | 76.3% | 93.5% | -2.18%
CCN(C)C(=O)Oc1cccc([C@H](C)N(C)C)c1 [rivastigmine] | 233% and 141% | 92.7% and 113% | -5.2% and 0.688%
C=CCC1(C2C=CCC2)C(=O)NC(=O)NC1=O (centres undefined) | 435% | 99.4% | -4.5%
CN1C(=O)[C@@H](NC(=O)c2cc3ccccc3[nH]2)N=C(c2ccccc2)c2ccccc21 [devazepide] | 159% | 34.4% | -11.1%
COc1ccc(OC)c(C(O)C(C)NC(C)(C)C)c1 (centres undefined) [butaxamine] | 161% | 93.1% | -4.5%
O=C1Nc2ccc(Cl)cc2C(c2ccccc2)=NC1O (centres undefined) [oxazepam] | 129% | 65.1% | -3.7%
O=C(NC(=O)c1c(F)cccc1F)Nc1cc(Cl)c(OC(F)(F)C(F)C(F)(F)F)cc1Cl (centres undefined) [lufenuron] | 257% | 110% | 1.24%
NC1CCCC1c1ccccc1 (centres undefined) [cypenamine] | 223% | 102% | -0.288%
C#CCN(C)[C@H](C)Cc1ccccc1 | 176% | 111% | -0.232%
CNCC12CCC(c3ccccc31)c1ccccc12 [benzoctamine] | 92.6% | 85% | 0.602%
CN1C(=O)CC(=O)N(c2ccccc2)c2cc(Cl)ccc21 [clobazam] | 170% | 69.6% | -8.58%
Oc1ccc2c3c1O[C@H]1[C@@H](O)CC[C@@]4(O)[C@@H](C2)N(CC2CCC2)CC[C@]314 [Nalbuphine] | 193% | 102% | 2.52%
CCNC1C2CCC(C2)C1c1ccccc1 (centres undefined) [fencamfamin] | 245% | 87.4% | -2.26%
CCN(CC)C(=O)N[C@H]1C[C@@H]2c3cccc4[nH]cc(c34)C[C@H]2N(C)C1 [terguride] | 65.6% | 83.2% | -4.42%
CNC(=O)Oc1ccc2c(c1)[C@]1(C)CCN(C)[C@@H]1N2C | 109% | 104% | -4.64%
NC1=NCC(c2ccc(C(F)(F)F)cc2)O1 (centres undefined) [fluminorex] | 151% | 104% | 1.99%
CC(=O)OC(c1ccccc1)C1CCCCN1 (centres undefined) [levofacetoperane] | 99.9% | 61.6% | -0.218%
CCN[C@H](C)Cc1cccc(C(F)(F)F)c1 [levofenfluramine] | 319% | 65.7% | 0.371%
c1ccc(C2(c3ccccc3)OC[C@@H]([C@H]3CCCCN3)O2)cc1 [levoxadrol] | 247% | 105% | -1.06%
